# Assay results as given in PubChem BioAssay AID504467 (National Center for Advancing Translational Sciences (NCATS), 2011).
# Screen size: about 330,000 compounds; about 7,700 (2.3%) were called active. Inconclusive means that the source gave no clear call. Such entries were picked first, then a sample of the others. The call rests on the fitted dose curve; in most records, active means well fitted inhibition curve with a large enough effect; inconclusive means small, poorly fitted or top-dose-only effect, or effect the other way; inactive means flat fitted curve, though single readings scatter. Potencies beside an inconclusive call are fits to weak or partial responses and may not hold up.
# Test: qHTS screen for small molecules that inhibit ELG1-dependent DNA repair in human embryonic kidney (HEK293T) cells expressing luciferase-tagged ELG1; further: nearly all actives have a fitted effect of over 55% in size
# Details: HEK293T ELG1-luciferase reporter, luminescence, 16 h, DNA damage induced by 5-fluorouridine; series mostly up to 46.1 µM
# In short: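 Luminescence from the luciferase reporter, measured 30 min after ONE-Glo reagent at room temperature, was the read-out. Beforehand, 2,000 cells per well were exposed for 16 hr at 37 °C to 5-fluorouridine together with compound or vehicle.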
# Potency means the concentration at half of the fitted maximal effect.
row,SMILES,Potency
1,CCc1ccc(CCC(=O)Nc2nccs2)o1,"inconclusive: 16.4 µM [activator, partial curve, poor fit]"
2,Oc1ccc(-c2nnc(SCc3ccccc3)o2)cc1,"inconclusive: 13 µM [activator, partial curve]"
3,C/C(=N\OCC(=O)OC(C)C(=O)Nc1ccc(C(N)=O)cc1)c1ccc2c(c1)OCO2 (stereo not given),inactive
4,Cc1ccc(-c2[nH]nc(N)c2N=Nc2ccccc2C)cc1,inactive
5,CCCS(=O)(=O)N1CCN(C(=O)COc2ccc(-c3ccccc3)cc2)CC1,"inconclusive: 5.8 µM [inhibitor, partial curve, poor fit]"
6,Cc1nnc(SCC(=O)c2ccc(Cl)cc2)n(N)c1=O,"inconclusive: 1.83 µM [activator, full curve]"
7,COC(=O)c1cc(OC)c(OC)cc1NC(=O)c1cccc(OC)c1OC,"inconclusive: 14.6 µM [inhibitor, partial curve]"
8,O=C(CSc1nc2ccc(NC(=O)c3ccccc3C(=O)O)cc2s1)Nc1ccc(F)c([N+](=O)[O-])c1,"inconclusive: 23.1 µM [inhibitor, single point]"
9,OCCC1CN(C2CCC2)CCN1Cc1ccc(F)c(F)c1 (stereo not given),inactive
10,CCCCN1CNC(=S)N(c2cc(C)ccc2C)C1,inactive
11,COc1cc(CCC(=O)OCC(=O)NCc2ccccc2)cc(OC)c1OC,"inconclusive: 10.3 µM [activator, partial curve, poor fit]"
12,COc1ccc(-c2ccc(CCC(=O)O)o2)cc1,"inconclusive: 18.3 µM [activator, partial curve]"
13,CCCCCn1c(CN2CCN(Cc3ccccc3)CC2)nc2c1c(=O)n(C)c(=O)n2C,active: 20.6 µM
14,CC(=O)OCc1c(-c2ccccc2)c2cc([N+](=O)[O-])ccc2n1C,"inconclusive: 29.1 µM [inhibitor, single point]"
15,Cc1cccc(NC(=S)Nc2ccc(Br)cc2)c1,"inconclusive: 16.4 µM [activator, single point]"
16,COc1ccc(NC(=O)Cn2cnc3c(cnn3C(C)(C)C)c2=O)cc1OC,"inconclusive: 0.73 µM [activator, single point]"
17,Cc1ccc(-n2c3c(cc(C(=O)NC4CCSC4=O)c2=O)C(=O)CC(C)(C)C3)cc1 (stereo not given),inactive
18,COc1ccc(-n2c(C)nc3sc4c(c3c2=O)CCC4)cc1,"inconclusive: 9.2 µM [inhibitor, partial curve]"
19,CC1(c2ccccc2Br)NC(=O)N(CC(=O)NC2CCCCC2)C1=O (stereo not given),inactive
20,O=C(NNc1ccc([N+](=O)[O-])cc1)C1C2CCCCC21 (stereo not given),"inconclusive: 32.6 µM [activator, partial curve, poor fit]"
21,COc1ccc(-c2csc(NC(=O)c3ccc(N4C(=O)CCC4=O)cc3)n2)cc1OC,inactive
22,Cc1ccc(C2c3c(oc4cc(C)c(C)cc4c3=O)C(=O)N2CCCN2CCOCC2)cc1 (stereo not given),"inconclusive: 29.1 µM [inhibitor, single point]"
23,COc1cc(C2C(C#N)=C(N)N(Nc3ccccc3)C3=C2C(=O)CC(C)(C)C3)ccc1OCc1cccc(F)c1 (stereo not given),"inconclusive: 29.1 µM [inhibitor, single point]"
24,COc1ccc2oc(=O)c(-c3csc(Nc4cccc(O)c4)n3)cc2c1,active: 25.9 µM

# Sorted by number of heavy atoms (low to high): part of the list above.
row,SMILES,Potency
15,Cc1cccc(NC(=S)Nc2ccc(Br)cc2)c1,"inconclusive: 16.4 µM [activator, single point]"
9,OCCC1CN(C2CCC2)CCN1Cc1ccc(F)c(F)c1 (stereo not given),inactive
21,COc1ccc(-c2csc(NC(=O)c3ccc(N4C(=O)CCC4=O)cc3)n2)cc1OC,inactive

# (listing goes on)

row,SMILES,Potency
1,Cn1c(CC(=O)NC(C)(C)CO)c(Sc2ccccc2)c2ccccc21,inactive
2,COc1cccc(CNC(=O)CNC(=O)c2cccs2)c1,"inconclusive: 25.9 µM [activator, partial curve, poor fit]"
3,CN(C)S(=O)(=O)c1ccc2c(c1)Cc1cc(S(=O)(=O)N(C)C)ccc1-2,active: 2.31 µM
4,COc1ccc(C(=O)Nc2cccc3ccccc23)cc1,"inconclusive: 11.6 µM [activator, partial curve]"
5,CCCCOc1ccc(-c2nc(SCC(N)=O)n[nH]2)cc1,"inconclusive: 9.2 µM [activator, partial curve, poor fit]"
6,O=c1c2cc([N+](=O)[O-])ccc2nc2n1CCCC2,"inconclusive: 6.51 µM [inhibitor, single point]"
7,COc1cc(Nc2cc(C)nc3nc(C)nn23)cc(OC)c1OC,"inconclusive: 25.9 µM [activator, single point]"
8,O=C(OCc1nc2ccccc2[n+]([O-])c1C(=O)c1ccccc1)c1cccnc1,inactive
9,CN(C)CCN(Cc1cc2cc3c(cc2nc1Cl)OCO3)C(=O)c1ccco1,inactive
10,NC(=O)C1CC(=O)N(c2ccc(OCc3ccc(Cl)cc3Cl)cc2)C1 (stereo not given),"inconclusive: 29.1 µM [activator, single point]"
11,O=c1c2c3c(sc2n2cnnc2n1Cc1ccccc1)CN(Cc1ccccc1)CC3,"inconclusive: 29.1 µM [inhibitor, single point]"
12,c1ccc(-n2cnnc2SCc2nc3ccccc3s2)cc1,"inconclusive: 20.6 µM [activator, partial curve]"
13,Cc1ccc(S(=O)(=O)Nc2cccc(S(=O)(=O)Nc3ccccc3C(=O)O)c2)c(C)c1,"inconclusive: 25.9 µM [activator, partial curve, poor fit]"
14,NC(=O)c1ccsc1NC(=O)c1coc2ccccc2c1=O,"inconclusive: 4.11 µM [activator, full curve]"
15,CCSCc1nc(N)nc(NCCc2ccccc2)n1,"inconclusive: 16.4 µM [activator, single point]"
16,C/C(CCN1CCc2nc(-c3ccccc3)c(-c3ccccc3)cc2C1)=N\O[C@@H](C)c1cn([C@H](CO)Cc2ccccc2)nn1,active: 20.6 µM
17,COc1ccc(CN(C)CC(=O)Nc2ccc(Cl)cc2C(F)(F)F)c(OC)c1,inactive
18,Cc1ccc(S(=O)(=O)N2CCOCC2)cc1C(=O)OCC(=O)NCCc1ccc(F)cc1,inactive
19,COc1ccc(NC(=O)c2ccccc2NC(=O)COc2ccccc2)cc1,inactive
20,Fc1ccccc1C(c1nnnn1Cc1ccc2c(c1)OCO2)N1CCN(Cc2ccccc2)CC1 (stereo not given),"inconclusive: 29.1 µM [inhibitor, single point]"
21,COC(=O)Nc1nc(-c2ccccc2)c(C(=O)c2ccc(Cl)cc2)s1,"inconclusive: 0.461 µM [inhibitor, partial curve, poor fit]"
22,Cc1nn(C)cc1/C=N/n1nnnc1N,"inconclusive: 23.1 µM [activator, partial curve, poor fit]"
23,Cc1ncsc1CCC(=O)N1CCCC(C(=O)c2cccc(Cl)c2)C1 (stereo not given),"inconclusive: 23.1 µM [inhibitor, partial curve, poor fit]"
24,CCc1cccc(NC(=O)CCCSc2nc3ccccc3[nH]2)c1,"inconclusive: 25.9 µM [inhibitor, single point]"

# Single entries from the list.
# Value for CC1(c2ccccc2Br)NC(=O)N(CC(=O)NC2CCCCC2)C1=O (stereo not given) under Potency: inactive
# Value for Cc1cccc(NC(=S)Nc2ccc(Br)cc2)c1 under Potency: inconclusive: 16.4 µM [activator, single point]

# (continued)

row,SMILES,Potency
1,O=C(NCCC1=CCCCC1)C1CCC(CNc2nc(=S)[nH]c3ccccc23)CC1 (stereo not given),"inconclusive: 29.1 µM [activator, single point]"
2,CCC(=S)/C=C1\Sc2ccc3ccccc3c2N1CCCS(=O)(=O)O,inactive
3,Cc1ccc(NC(=O)c2sc(Cl)nc2-c2ccccc2)cc1C,inactive
4,O=C(Nc1nnc(/C=C/c2ccccc2)s1)c1ccco1,"inconclusive: 13 µM [activator, partial curve]"
5,O=C(NCc1ccccn1)C(=O)NN=C1CCCCCCC1,inactive
6,CCOC(=O)N1CCN(Cc2cc(=O)oc3ccc4ccccc4c23)CC1,"inconclusive: 14.6 µM [inhibitor, partial curve, poor fit]"
7,CCn1c(=O)cc(OCC(=O)N(C)c2ccccc2F)c2ccccc21,"inconclusive: 29.1 µM [activator, single point]"
8,O=c1[nH]c(=O)c2cc([N+](=O)[O-])cc([N+](=O)[O-])c2[nH]1,"inconclusive: 14.6 µM [inhibitor, partial curve]"
9,COc1ccc(S(=O)(=O)N2CCOCC2)cc1NC(=O)COc1ccc(C)cc1,"inconclusive: 29.1 µM [inhibitor, single point]"
10,O=C(NCCNc1ccc2ccccc2c1)c1cccn2c(=O)c3sccc3nc12,"inconclusive: 23.1 µM [inhibitor, single point]"
11,Cc1nn(-c2ccc(Cl)nn2)c(=O)c2ccccc12,"inconclusive: 20.6 µM [activator, partial curve]"
12,Cc1nn(-c2ccccc2)c2nc(-c3ccccc3)cc(C(=O)N3CCOCC3)c12,"inconclusive: 29.1 µM [inhibitor, single point]"
13,CC(=O)N(C)c1ccc(NC(=O)Cc2cccs2)cc1,"inconclusive: 23.1 µM [activator, partial curve]"
14,Cc1ccc(NC(=O)Cn2cccc2)c(C)c1,"inconclusive: 18.4 µM [activator, single point]"
15,Cc1ccc(/C=C/C(=O)N2CC(C)CC(C)C2)o1 (stereo not given),inactive
16,COc1ccccc1N1CCN(S(=O)(=O)c2ccc(Br)s2)CC1,"inconclusive: 23.1 µM [activator, partial curve, poor fit]"
17,Cc1[nH]nc(SCC(=O)N2CCCCC2)c1[N+](=O)[O-],"inconclusive: 23.1 µM [activator, partial curve]"
18,CC(C)C[C@@H](C(=O)O)N(Cc1cccc(CN([C@@H](CC(C)C)C(=O)O)S(C)(=O)=O)c1)S(C)(=O)=O,inactive
19,COc1ccc(/C=C/C(=O)N2CCN(C)CC2)cc1OC,inactive
20,O=C(c1cc(-c2ccc(O)cc2)on1)N1CCOCC1,"inconclusive: 9.2 µM [activator, partial curve]"
21,Cc1ccc(C(=O)Nc2cccc(C(=O)NCc3ccco3)c2)cc1,inactive
22,O=C1CCC(C(=O)O)N1 (stereo not given),inactive
